# From the supplement of paper PMC8728848
# This is one part of the list.
# B1: Clec18Av1 (Homo sapiens), A5D8T8 (protein)
# chain: MLHPETSPGRGHLLAVLLALLGTAWAEVWPPQLQEQAPMAGALNRKESFLLLSLHNRLRSWVQPPAADMRRLDWSDSLAQLAQARAALCGTPTPSLASGLWRTLQVGWNMQLLPAGLVSFVEVVSLWFAEGQRYSHAAGECARNATCTHYTQLVWATSSQLGCGRHLCSAGQAAIEAFVCAYSPRGNWEVNGKTIVPYKKGAWCSLCTASVSGCFKAWDHAGGLCEVPRNPCRMSCQNHGRLNISTCHCHCPPGYTGRYCQVRCSLQCVHGRFREEECSCVCDIGYGGAQCATKVHFPFHTCDLRIDGDCFMVSSEADTYYRARMKCQRKGGVLAQIKSQKVQDILAFYLGRLETTNEVIDSDFETRNFWIGLTYKTAKDSFRWATGEHQAFTSFAFGQPDNHGFGNCVELQASAAFNWNDQRCKTRNRYICQFAQEHISRWGPGS
# Experiments:
# Assay in all cases: glycan array binding signal (z-score within array); higher = stronger binding
# Conditions in all cases: glycan notation: IUPAC condensed, linker removed
# [1] = target: Gal(b1-3)[Fuc(a1-4)]GlcNAc(b1-6)GalNAc
# Outline: (§1)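 Arrays were curated from the Consortium for Functional Glycomics database, 3228 in total, and kept only where the protein sequence was available. Binding is expressed as a within-array Z-score. This score was averaged across arrays of the same protein sequence at different concentrations or buffers and across linkers, and negative values can be read as non-binding.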
# [2] = target: Gal(b1-3)[GlcNAc(b1-6)]GalNAc
# Outline: as §1
# [3] = target: Gal(b1-3)[Neu5Ac(a2-6)]GalNAc
# Outline: as §1
# [4] = target: Gal(b1-3)[Neu5Ac(a2-6)]GlcNAc(b1-4)Gal(b1-4)Glc
# Outline: as §1
# [5] = target: Gal(b1-3)[Neu5Ac(b2-6)]GalNAc
# Outline: as §1
# Gal(b1-4)Gal = target: Gal(b1-4)Gal
# Outline: as §1
# [6] = target: Gal(b1-4)GalNAc(a1-3)[Fuc(a1-2)]Gal(b1-4)GlcNAc
# Outline: as §1
# [7] = target: Gal(b1-4)GalNAc(b1-3)[Fuc(a1-2)]Gal(b1-4)GlcNAc
# Outline: as §1
# Gal(b1-4)Glc = target: Gal(b1-4)Glc
# Outline: as §1
# Gal(b1-4)Glc6S = target: Gal(b1-4)Glc6S
# Outline: as §1
# Gal(b1-4)GlcNAc = target: Gal(b1-4)GlcNAc
# Outline: as §1
# [8] = target: Gal(b1-4)GlcNAc(a1-6)Gal(b1-4)GlcNAc
# Outline: as §1
# Gal(b1-4)GlcNAc(b1-2)Man = target: Gal(b1-4)GlcNAc(b1-2)Man
# Outline: as §1
# [9] = target: Gal(b1-4)GlcNAc(b1-2)Man(a1-3)Man(b1-4)GlcNAc(b1-4)GlcNAc
# Outline: as §1
# [10] = target: Gal(b1-4)GlcNAc(b1-2)Man(a1-3)[Gal(b1-4)GlcNAc(b1-2)Man(a1-6)]Man(b1-4)GlcNAc(b1-4)GlcNAc
# Outline: as §1
# [11] = target: Gal(b1-4)GlcNAc(b1-2)Man(a1-3)[Gal(b1-4)GlcNAc(b1-2)Man(a1-6)]Man(b1-4)GlcNAc(b1-4)[Fuc(a1-6)]GlcNAc
# Outline: as §1
# [12] = target: Gal(b1-4)GlcNAc(b1-2)Man(a1-3)[Gal(b1-4)GlcNAc(b1-2)Man(a1-6)][Gal(b1-4)GlcNAc(b1-4)]Man(b1-4)GlcNAc(b1-4)[Fuc(a1-6)]GlcNAc
# Outline: as §1
# [13] = target: Gal(b1-4)GlcNAc(b1-2)Man(a1-3)[Gal(b1-4)GlcNAc(b1-2)Man(a1-6)][GlcNAc(b1-4)]Man(b1-4)GlcNAc(b1-4)[Fuc(a1-6)]GlcNAc
# Outline: as §1
# [14] = target: Gal(b1-4)GlcNAc(b1-2)Man(a1-3)[GlcNAc(b1-2)Man(a1-6)]Man(b1-4)GlcNAc(b1-4)GlcNAc
# Outline: as §1
# [15] = target: Gal(b1-4)GlcNAc(b1-2)Man(a1-3)[GlcNAc(b1-4)][Gal(b1-4)GlcNAc(b1-2)Man(a1-6)]Man(b1-4)GlcNAc(b1-4)GlcNAc
# Outline: as §1
# [16] = target: Gal(b1-4)GlcNAc(b1-2)Man(a1-3)[Man(a1-6)]Man(b1-4)GlcNAc(b1-4)GlcNAc
# Outline: as §1
# [17] = target: Gal(b1-4)GlcNAc(b1-2)Man(a1-6)Man(b1-4)GlcNAc(b1-4)GlcNAc
# Outline: as §1
# [18] = target: Gal(b1-4)GlcNAc(b1-2)Man(a1-6)[GlcNAc(b1-2)Man(a1-3)]Man(b1-4)GlcNAc(b1-4)GlcNAc
# Outline: as §1
# [19] = target: Gal(b1-4)GlcNAc(b1-2)Man(a1-6)[Man(a1-3)]Man(b1-4)GlcNAc(b1-4)GlcNAc
# Outline: as §1
# [20] = target: Gal(b1-4)GlcNAc(b1-2)[Gal(b1-4)GlcNAc(b1-4)]Man(a1-3)[Gal(b1-4)GlcNAc(b1-2)Man(a1-6)]Man(b1-4)GlcNAc(b1-4)GlcNAc
# Outline: as §1
# [21] = target: Gal(b1-4)GlcNAc(b1-2)[Gal(b1-4)GlcNAc(b1-4)]Man(a1-3)[Gal(b1-4)GlcNAc(b1-2)[Gal(b1-4)GlcNAc(b1-6)]Man(a1-6)]Man(b1-4)GlcNAc(b1-4)GlcNAc
# Outline: as §1
# [22] = target: Gal(b1-4)GlcNAc(b1-2)[Gal(b1-4)GlcNAc(b1-4)]Man(a1-3)[GlcNAc(b1-4)][Gal(b1-4)GlcNAc(b1-2)Man(a1-6)]Man(b1-4)GlcNAc(b1-4)GlcNAc
# Outline: as §1
# [23] = target: Gal(b1-4)GlcNAc(b1-2)[Gal(b1-4)GlcNAc(b1-4)]Man(a1-3)[GlcNAc(b1-4)][Gal(b1-4)GlcNAc(b1-2)[Gal(b1-4)GlcNAc(b1-6)]Man(a1-6)]Man(b1-4)GlcNAc(b1-4)GlcNAc
# Outline: as §1
# [24] = target: Gal(b1-4)GlcNAc(b1-2)[Gal(b1-4)GlcNAc(b1-6)]Man(a1-6)[Gal(b1-4)GlcNAc(b1-2)Man(a1-3)]Man(b1-4)GlcNAc(b1-4)GlcNAc
# Outline: as §1
# [25] = target: Gal(b1-4)GlcNAc(b1-2)[Gal(b1-4)GlcNAc(b1-6)]Man(a1-6)[Gal(b1-4)GlcNAc(b1-2)Man(a1-3)]Man(b1-4)GlcNAc(b1-4)[Fuc(a1-6)]GlcNAc
# Outline: as §1
# [26] = target: Gal(b1-4)GlcNAc(b1-2)[Gal(b1-4)GlcNAc(b1-6)]Man(a1-6)[GlcNAc(b1-4)][Gal(b1-4)GlcNAc(b1-2)Man(a1-3)]Man(b1-4)GlcNAc(b1-4)GlcNAc
# Outline: as §1
# [27] = target: Gal(b1-4)GlcNAc(b1-2)[Gal(b1-4)GlcNAc(b1-6)]Man(a1-6)[GlcNAc(b1-4)][Gal(b1-4)GlcNAc(b1-2)[Gal(b1-4)GlcNAc(b1-4)]Man(a1-3)]Man(b1-4)GlcNAc(b1-4)[Fuc(a1-6)]GlcNAc
# Outline: as §1
# [28] = target: Gal(b1-4)GlcNAc(b1-3)Gal(b1-3)GalNAc
# Outline: as §1
# [29] = target: Gal(b1-4)GlcNAc(b1-3)Gal(b1-3)GlcNAc
# Outline: as §1
# [30] = target: Gal(b1-4)GlcNAc(b1-3)Gal(b1-4)Glc
# Outline: as §1
# [31] = target: Gal(b1-4)GlcNAc(b1-3)Gal(b1-4)GlcNAc
# Outline: as §1
# [32] = target: Gal(b1-4)GlcNAc(b1-3)Gal(b1-4)GlcNAc(b1-2)Man(a1-3)[Gal(b1-4)GlcNAc(b1-3)Gal(b1-4)GlcNAc(b1-2)Man(a1-6)]Man(b1-4)GlcNAc(b1-4)GlcNAc
# Outline: as §1
# [33] = target: Gal(b1-4)GlcNAc(b1-3)Gal(b1-4)GlcNAc(b1-2)Man(a1-3)[Gal(b1-4)GlcNAc(b1-3)Gal(b1-4)GlcNAc(b1-2)Man(a1-6)]Man(b1-4)GlcNAc(b1-4)[Fuc(a1-6)]GlcNAc
# Outline: as §1
binder,measurement,setting,value
B1,glycan array binding signal (z-score),[1],1.76
same,glycan array binding signal (z-score),[2],1.01
same,glycan array binding signal (z-score),[3],0.774
same,glycan array binding signal (z-score),[4],-0.523
same,glycan array binding signal (z-score),[5],-0.431
same,glycan array binding signal (z-score),Gal(b1-4)Gal,-0.594
same,glycan array binding signal (z-score),[6],-0.265
same,glycan array binding signal (z-score),[7],0.677
same,glycan array binding signal (z-score),Gal(b1-4)Glc,0.155
same,glycan array binding signal (z-score),Gal(b1-4)Glc6S,0.74
same,glycan array binding signal (z-score),Gal(b1-4)GlcNAc,-0.07
same,glycan array binding signal (z-score),[8],-0.735
same,glycan array binding signal (z-score),Gal(b1-4)GlcNAc(b1-2)Man,-0.801
same,glycan array binding signal (z-score),[9],0.468
same,glycan array binding signal (z-score),[10],-0.218
same,glycan array binding signal (z-score),[11],0.162
same,glycan array binding signal (z-score),[12],2.24
same,glycan array binding signal (z-score),[13],0.712
same,glycan array binding signal (z-score),[14],-0.076
same,glycan array binding signal (z-score),[15],0.415
same,glycan array binding signal (z-score),[16],0.244
same,glycan array binding signal (z-score),[17],1.04
same,glycan array binding signal (z-score),[18],-0.653
same,glycan array binding signal (z-score),[19],-0.454
same,glycan array binding signal (z-score),[20],0.818
same,glycan array binding signal (z-score),[21],0.04
same,glycan array binding signal (z-score),[22],1.9
same,glycan array binding signal (z-score),[23],-0.615
same,glycan array binding signal (z-score),[24],1.4
same,glycan array binding signal (z-score),[25],0.533
same,glycan array binding signal (z-score),[26],3.23
same,glycan array binding signal (z-score),[27],0.291
same,glycan array binding signal (z-score),[28],3.37
same,glycan array binding signal (z-score),[29],-0.673
same,glycan array binding signal (z-score),[30],0.219
same,glycan array binding signal (z-score),[31],0.493
same,glycan array binding signal (z-score),[32],0.471
same,glycan array binding signal (z-score),[33],2.85
